# Assay results as given in paper PMC2999431.
# Assays:
# [1] = molecular target: Cotesia congregata bracovirus CcV1 protein, epitope-tagged recombinant form (Cotesia congregata bracovirus); test: co-IP; co-immunoprecipitation employing the recombinant epitope-tagged proteins expressed in lepidopteran cells
# [2] = molecular target: Cotesia congregata bracovirus CcV1 protein, epitope-tagged recombinant form (Cotesia congregata bracovirus); test: cross-linking; chemical cross-linking employing the recombinant epitope-tagged proteins expressed in lepidopteran cells
binder,measurement,setting,value
"Manduca sexta hemolin, epitope-tagged recombinant form (protein, UniProt P31398 19-413) QPVEKMPVLKDQPAEVLFRESQATVLECVTENGDKDVKYSWQKDGKEFKWQEHNIAQRKDEGSLVFLKPEAKDEGQYRCFAESAAGVATSHIISFRRTYMVVPTTFKTVEKKPVEGSWLKLECSIPEGYPKPTIVWRKQLGEDESIADSILARRITQSPEGDLYFTSVEKEDVSESYKYVCAAKSPAIDGDVPLVGYTIKSLEKNTNQKNGELVPMYVSNDMIAKAGDVTMIYCMYGGVPMAYPNWFKDGKDVNGKPSDRITRHNRTSGKRLFIKETLLEDQGTFTCDVNNEVGKPQKHSVKLTVVSGPRFTKKPEKQVIAKQGQDFVIPCEVSALPAAPVSWTFNAKPISGSRVVASPSGLTIKGIQKSDKGYYGCQAHNEHGDAYAETLVIVA",binding,[1],binds
same,binding,[2],binds

# No constants are given. Whether binding was seen depends on the method and setting. In cells and extracts the contact can be indirect. A result given as binding can be weak or reduced; the word gives no strength. Sequences can lack the tags named with a protein.
